Results on 42 sequences are retold here after paper PMC7819943, “Rice protein-binding microarrays: a tool to detect cis-acting elements near promoter regions in rice”.

Protein sequences, listed by entry. Tags and fused reporters are not part of them.
UniProt Q0JBA9, entry or part of it: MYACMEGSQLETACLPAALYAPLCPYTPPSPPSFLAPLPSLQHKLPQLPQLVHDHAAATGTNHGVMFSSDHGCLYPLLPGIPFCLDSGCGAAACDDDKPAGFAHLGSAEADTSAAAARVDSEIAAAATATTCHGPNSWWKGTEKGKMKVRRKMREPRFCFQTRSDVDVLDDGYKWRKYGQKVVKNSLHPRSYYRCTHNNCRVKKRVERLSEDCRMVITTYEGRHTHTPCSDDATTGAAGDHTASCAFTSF

This is one part of the list.

This assay has as its target OsWRKY34 (Oryza sativa, UniProt Q0JBA9 1-250). The assay can be described thus: protein-binding microarray (RPBM); PBS, 2% BSA, 51.3 ng/ul salmon testes DNA, 50 uM zinc acetate, 200 nM TF, 25 C, 1 h; high values mean tight binding. Particulars: protein: recombinant; tags: N-terminal polyhistidine and DsRed monomer fusion (pET32a); label: CyDye5-dUTP incorporated in the synthesized complementary strand; 3' TTTTT single-stranded linker to array surface; dsDNA, one strand shown. Put shortly:
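Transcription factors, each fused N-terminally to a polyhistidine tag and DsRed, were expressed in E. coli BL21-CodonPlus and purified on Ni–NTA. A custom Agilent array was made double-stranded by primer extension with Cy5-dUTP and blocked with 2% BSA. It was incubated with 200 nM protein in PBS, 2% BSA, salmon testes DNA and 50 µM zinc acetate at 25 °C for 1 h, then washed. The binding signal is per-feature fluorescence intensity (arbitrary units) read on an Axon 4000B scanner.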
In the case of “TCGAGGTTTCTCACCTCCACCGGTTCCATCTCATCTCATGCGGAGTCACCTAGTGCAG”, the binding signal was 9960 fluorescence intensity (a.u.).

As for “ACCACCACCCGCAGATCTCCGCCTCGGCGCCATTGCCCACCGGAGTCACCTAGTGCAG”, the binding signal was 10500 fluorescence intensity (a.u.). Turning to “CACCGGTTCTTCGCCTTCGTCACCGTCGCCGGCGGCGCCACGGAGTCACCTAGTGCAG”, the binding signal was 8450 fluorescence intensity (a.u.).

In the case of “CCTTATTTTTCAGCGTGTCAACCTTGACTGGTATTTTTTTCGGAGTCACCTAGTGCAG”, the binding signal is 8050 fluorescence intensity (a.u.). Turning to “ATTATACTTCGACGGTTTTTTTTATAGATACTCCATTTCCCGGAGTCACCTAGTGCAG”, the binding signal is 8410 fluorescence intensity (a.u.). Consider “TAGAATCCACACTCGTAACATTCTGTTTTTTTATTTTTCCCGGAGTCACCTAGTGCAG”, for which the binding signal is 8570 fluorescence intensity (a.u.). For the sequence “CAAAGCGAAGGCTCCATTCATTCACTCCATCTCCTCGCGTCGGAGTCACCTAGTGCAG”, the binding signal was 8900 fluorescence intensity (a.u.). As to “GGCCTCTCGTGCACCACCGGGTTCGCGTTGATCATCCCCACGGAGTCACCTAGTGCAG”, the binding signal is 8120 fluorescence intensity (a.u.). Consider “GCAACACCACCCTCATCGGACCTGTGCCAACCGAGCTCGACGGAGTCACCTAGTGCAG”, for which the binding signal is 8100 fluorescence intensity (a.u.). For “TAAACTCGTCTTATCCGCATGATTGTTGACTATAGTATGTCGGAGTCACCTAGTGCAG”, the binding signal is 9300 fluorescence intensity (a.u.). Regarding “ATTGTCTCCCTCGACTTGCCCTGTTGTCCACGTTGACTCGCGGAGTCACCTAGTGCAG”, the binding signal was 9160 fluorescence intensity (a.u.). As for “GGTAGTTGGGGTTGTCGGCGACGTGGTAGCTGCCGACGGTCGGAGTCACCTAGTGCAG”, the binding signal was 9580 fluorescence intensity (a.u.).

Consider “AACACTTGAACGATCAGCCTCCACATCTTCTTACCCTATTCGGAGTCACCTAGTGCAG”, for which the binding signal was 8200 fluorescence intensity (a.u.). For “AGATTGACAGACACATTTGGAAGTGTTTCCCTGGCCTCACCGGAGTCACCTAGTGCAG”, the binding signal was 8420 fluorescence intensity (a.u.).

With “TTTTCTGTCATATCGTTCCAATTTGAATCAAACTTCCAATCGGAGTCACCTAGTGCAG”, the binding signal is 9830 fluorescence intensity (a.u.). “CGCCAGATATTTCCCGCGCGCCGCGTCGCGCCGCGCAACTCGGAGTCACCTAGTGCAG”: the binding signal is 8310 fluorescence intensity (a.u.). The same measure for “ATACGTGCCAATCCAAACATTTCTTATTGAGTCGCCCATTCGGAGTCACCTAGTGCAG”: 8620 fluorescence intensity (a.u.); for “CACTTTAAAACCCATGTGTATCTCGCGCCAAACTCGCTAGCGGAGTCACCTAGTGCAG”: 8200 fluorescence intensity (a.u.); for “GGTCCGCGGCTGCTACTACTACCGCCTTTTGTTTTTCTCTCGGAGTCACCTAGTGCAG”: 9350 fluorescence intensity (a.u.). Take “GAACTTCCCTCACATTTCTGCCTTGAATTTGCATGTTTGACGGAGTCACCTAGTGCAG”: the binding signal was 9550 fluorescence intensity (a.u.). As to “ATAATTTCTCAGACGCCCTCCGCTGATCTCCAGTTCTCTACGGAGTCACCTAGTGCAG”, the binding signal was 8820 fluorescence intensity (a.u.). In the case of “AAGTCATTCTAGCATTTCACACATTCATTTTGATGTTAATCGGAGTCACCTAGTGCAG”, the binding signal is 9830 fluorescence intensity (a.u.). Regarding “CTCATTGCCTCTTGCTGCCCCTGCTTCATTCTAATCCAATCGGAGTCACCTAGTGCAG”, the binding signal was 9480 fluorescence intensity (a.u.). On to “CCTGCTTCCCGGCCTCTTGTTCTGCTTGCTTGCCTGCCACCGGAGTCACCTAGTGCAG”, for which the binding signal was 10400 fluorescence intensity (a.u.). Consider “CCGCCGCCGCCTCTGCTCCATCGATTCCCGGGTGCACTCGCGGAGTCACCTAGTGCAG”, for which the binding signal was 8420 fluorescence intensity (a.u.). Consider “TCCACGCGCTCTGCTGCCTCGTCTCGCTCTTCCTCGGGTTCGGAGTCACCTAGTGCAG”, for which the binding signal is 9910 fluorescence intensity (a.u.).

As to “GTCTTCTCCGCCGCCGCCGCCGCCGCCGCCGTCCGTCCGTCGGAGTCACCTAGTGCAG”, the binding signal is 9360 fluorescence intensity (a.u.). For the sequence “TCCTCCTCCTTGCCCTCTAGCTACTAGCTCACACTGTCACCGGAGTCACCTAGTGCAG”, the binding signal is 8130 fluorescence intensity (a.u.).

With “GGAGTTTGAAAGGGTGGGAGAGAGCAGATAAGGGATAATTCGGAGTCACCTAGTGCAG”, the binding signal is 8480 fluorescence intensity (a.u.). The same measure for “TAAATCTTTCTCAACTTTTCCTTAATTTTCTCGTATTTTTCGGAGTCACCTAGTGCAG”: 8500 fluorescence intensity (a.u.); for “AAGTTTTTGACCTACAGTAACATCATTTTTCGCTTTCTATCGGAGTCACCTAGTGCAG”: 9180 fluorescence intensity (a.u.); for “ACCATCCGATTTCCGCGCCCGTGATTTCACACGTCTCGCGCGGAGTCACCTAGTGCAG”: 9200 fluorescence intensity (a.u.). For “ATACGACCATGAAGCCTGCGTTCTTCCTCTTGCGCCTCATCGGAGTCACCTAGTGCAG”, the binding signal was 8250 fluorescence intensity (a.u.). Turning to “CCTCTCTGACCCTATTTCGTTTAGGTGAGTTCACGGTGTTCGGAGTCACCTAGTGCAG”, the binding signal was 10700 fluorescence intensity (a.u.). Regarding “AGGCCATAGAATATACTAACAGACTGCCTATGTTTTGATTCGGAGTCACCTAGTGCAG”, the binding signal is 8650 fluorescence intensity (a.u.). With “TTTTCCGATCATTTCCGAGTGATTTCATCCCTACCTGCATCGGAGTCACCTAGTGCAG”, the binding signal is 10800 fluorescence intensity (a.u.).

As to “CCCTTTTTCTTTCACATTTTACGGTGCGGTCTTGATTCGTCGGAGTCACCTAGTGCAG”, the binding signal is 9200 fluorescence intensity (a.u.). Turning to “CCCACCACCAACTTACCCAGGAAACACCCGTCCGATTCACCGGAGTCACCTAGTGCAG”, the binding signal is 8590 fluorescence intensity (a.u.). For the sequence “AGATTTTCTGTCTTTTTGATCCGTCTTTAGTGGAGCTTTTCGGAGTCACCTAGTGCAG”, the binding signal is 8420 fluorescence intensity (a.u.). The same measure for “GCCTGTTCACTTTGATGCTATTTTCAACCTTACCAAATTTCGGAGTCACCTAGTGCAG”: 12500 fluorescence intensity (a.u.). The same measure for “ACGCCGTTGACTTTTTTAAACATGTTTGACTGTTCGTCTTCGGAGTCACCTAGTGCAG”: 38200 fluorescence intensity (a.u.). Turning to “CTTTAACCAACGTATTCCTCTCTATCTTTTTTTTCTCCTCCGGAGTCACCTAGTGCAG”, the binding signal was 8260 fluorescence intensity (a.u.).
